# Some entries share one result that the patent states for a list of compounds.
# Tested on: frog skin melanocytes
# Assay: frog skin pigmentation assay, skin darkening measured by reflectance
# Format: cell-based
# Conditions: reversal of the maximum response; FIG. 5
substance,measurement,value
"Acetil-Toac-Ser-Tyr-Ser-Nle-Glu-His-DPhe-Arg-Trp-Gly-Lys-Pro-Val-CONH2 (FRWGKPV; N-acetyl-Toac, Nle, D-Phe, C-terminal amide; printed: Phe-Arg-Trp-Gly-Lys-Pro-Val-) [EPM-3, Melanotan analogue labeled at the N-terminus with the paramagnetic spin probe amino acid Toac]",time biological activity was maintained after removal of the agonist and several Ringer washings,≥ 2 h
